PubChem BioAssay AID602196 – INSERM | 2012
Purpose: 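Knock-downs that protect lung cancer cells from cisplatin or sensitise them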. System: human A549 lung cancer cells. Reagent: siRNA pair against human genes. Duration: 48 h transfection before cisplatin; time from cisplatin to read-out not stated. Treatment: cisplatin at a dose killing half of control-siRNA cells; exact dose and duration not given. Detection: 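Shift in cisplatin death relative to control siRNA, from -50 (all cells die) to +50 (no cells die); siRNAs harmful on their own scored 0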. Reading the numbers: two-siRNA summed score (-2 to +2): higher = both siRNAs protect from cisplatin killing; -2 means both sensitise. Hit rule: 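Each siRNA scores 0 if harmful alone by LDH or WST-1, otherwise +1 if it reduces and -1 if it increases cisplatin killing; a gene is active when both siRNAs agree (sum +2 or -2)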. Calls: active = both siRNAs shift cisplatin killing the same way; inactive = no consistent shift, or siRNA harmful alone.
Here is an unselected part of about 23,000 reagents. Of all reagents, 455 (2%) are marked active. 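Active includes both protection and sensitisation; some change values fall well beyond the stated -50 to +50 range.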 Further read-outs or replicates are left out here. Reagent sequences are not shown. The record does not give: the amount of reagent.

After knock-down of KIAA1935 the results were two-siRNA summed score (-2 to +2) = 0; inactive. Depletion of F12 resulted in: two-siRNA summed score (-2 to +2) = 0; inactive. Silencing of NUDT10 came out at: two-siRNA summed score (-2 to +2) = 0; inactive. THOP1 gave two-siRNA summed score (-2 to +2) = 0; inactive. For HLA-DRB1, the entry reads two-siRNA summed score (-2 to +2) = 0; inactive. Silencing of DYNC2I2 resulted in: two-siRNA summed score (-2 to +2) = 0; inactive.

Depletion of KLK7 gave: two-siRNA summed score (-2 to +2) = 0; inactive. For LOC285193, the entry reads two-siRNA summed score (-2 to +2) = 0; inactive. HSFY1 gave two-siRNA summed score (-2 to +2) = 0; inactive. LINC01019 gave two-siRNA summed score (-2 to +2) = 0; inactive. Depletion of SPINK2 gave: two-siRNA summed score (-2 to +2) = 0; inactive. With knock-down of SLC9B1, the screen gave two-siRNA summed score (-2 to +2) = 1; inactive.

With knock-down of ZNF12 the results were two-siRNA summed score (-2 to +2) = 1; inactive.

Sorted by “two-siRNA summed score (-2 to +2)” (high to low): some entries from above.
SLC9B1: two-siRNA summed score (-2 to +2) = 1; Outcome = inactive
ZNF12: two-siRNA summed score (-2 to +2) = 1; Outcome = inactive
SPINK2: two-siRNA summed score (-2 to +2) = 0; Outcome = inactive

More records follow.
Against LOC158104 the deposit lists two-siRNA summed score (-2 to +2) = 0; inactive. With knock-down of LOC399713, the screen gave two-siRNA summed score (-2 to +2) = 0; inactive. After knock-down of ACTN3 the results were two-siRNA summed score (-2 to +2) = -1; inactive. Depletion of EML4 resulted in: two-siRNA summed score (-2 to +2) = 0; inactive. For TOX2 the deposit lists two-siRNA summed score (-2 to +2) = 0; inactive. Knock-down of GALNS resulted in: two-siRNA summed score (-2 to +2) = 1; inactive.

Depletion of TMEM184C gave: two-siRNA summed score (-2 to +2) = -1; inactive. After knock-down of LOC441806, the screen gave two-siRNA summed score (-2 to +2) = 0; inactive.
